# Measurements: PubChem BioAssay AID2685 (National Center for Advancing Translational Sciences (NCATS), 2010)
# Some of the results follow. Shown are side measurements of this screen, not its main read-out; they come without a call. Most of these compounds were active or inconclusive in the main read-out, so they are no random draw. The note in brackets gives the kind of curve behind each potency; many fits are weak.
# Assay: qHTS Assay for Lipid Storage Modulators in Drosophila S3 Cells;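 for cell number change: cells counted by Cell Tracker Red CMTPX staining in the red channel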
# Conditions: BODIPY lipid droplet fluorescence, 18-24 h; for cell number change: measured here: cell count max response, cells fed with added oleic acid
# How it was run: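 Drosophila S3 cells loaded with oleic acid (400 uM, as added) and compounds at several concentrations; lipid droplets imaged by 488-nm laser-scanning cytometry, 500–530 nm intensity and object ratio to cell channel. Percent activity normalized to 20 uM Triacsin C.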
# [1] = measured here: cell number channel AC50, cells fed with added oleic acid
# [2] = measured here: lipid fluorescence (Fed channel) AC50, cells fed with added oleic acid
Compound,cell number change,AC50 [1],AC50 [2]
C/C(=N\NC(=S)NC(C)C)c1ccc(Cl)s1,-56%,"29.1 µM [falling, single point]","5.8 µM [falling, partial curve, poor fit]"
COCc1nnc(NC(=O)CCSc2ccccc2)s1,20.8%,,"29.1 µM [rising, single point]"
O=S(=O)(NCc1cccnc1)c1ccc(Cl)c2ccccc12,19.4%,,"29.1 µM [falling, single point]"
CC1CCCCN1Cc1ccc(-c2nn[nH]n2)cc1 (configuration not stated),-115%,"29.1 µM [falling, partial curve]","20.6 µM [falling, partial curve]"
CCC(C)(C)NC(=O)C(c1ccncc1)N(Cc1cccs1)C(=O)Cn1nnc2ccccc21 (configuration not stated),-20.2%,,
CCn1c(=S)sc2c(=O)n(-c3ccccc3)c(SC)nc21,-13.6%,,"6.51 µM [falling, single point]"
CN(CCN1CCOCC1)Cc1nc(-c2ccc3c(c2)OCO3)no1,6.8%,,
CCc1nnc(NC(=O)CCN(c2ccc(C)cc2)S(=O)(=O)c2ccccc2)s1,-33.3%,"0.82 µM [falling, partial curve, poor fit]",
Cc1ccc(OCC(=O)N2CCN(c3nnc(-c4ccc(C)cc4)c4ccccc34)CC2)cc1,,"4.11 µM [rising, partial curve]",
Cc1cc(C)cc(-n2nnn(C3C/C(=N/NC(N)=S)C4OCC3O4)c2=S)c1 (configuration not stated),-20.8%,"0.0651 µM [falling, full curve, poor fit]",
CS(=O)(=O)N(CC(O)CON=C1c2ccccc2-c2ccccc21)c1ccc(F)cc1 (configuration not stated),14.6%,"1.3 µM [falling, full curve]","0.82 µM [falling, full curve]"
Cc1ccc(/C=C/C(=O)O)cc1S(=O)(=O)N1CCc2ccccc2C1,7.12%,"0.164 µM [rising, full curve, poor fit]",
CC1(C)Cc2c(sc3[nH]c(=S)n(Cc4ccco4)c(=O)c23)CO1,-4.82%,,"29.1 µM [rising, single point]"
O=C1CSC(=S)N1/N=C/C=C/c1ccccc1,,,"0.103 µM [falling, full curve, poor fit]"
CCn1c(=O)n(CC)c2cc(N3CCCC3)c(NC(=O)c3ccc(OC)c(Br)c3)cc21,1.15%,,"0.13 µM [rising, full curve, poor fit]"
c1cc2nncn2nc1N1CCCC1,5.64%,,"0.13 µM [falling, full curve]"
COc1ccc(NC(=O)CSc2n[nH]c(N)n2)cc1OC,30.4%,"10 µM [rising, single point]","8.91 µM [rising, partial curve, poor fit]"
Cc1cccn2c(=O)c3cc(S(=O)(=O)c4ccccc4)c(=N)n(Cc4ccc(F)cc4)c3nc12,10.4%,,"29.1 µM [rising, single point]"
Cn1c(=O)oc2cc(S(=O)(=O)NCCC(=O)N3CCc4ccccc4C3)ccc21,81.3%,,"4.11 µM [rising, single point]"
COc1ccccc1NC(=O)C1CCCCN1S(=O)(=O)c1ccc(F)cc1 (configuration not stated),-10.9%,,"0.0731 µM [falling, full curve, poor fit]"

Compound,cell number change,AC50 [1],AC50 [2]
Cc1ccc(-n2nc3c(c2NC(=O)c2c(F)cccc2Cl)CS(=O)(=O)C3)cc1C,11.4%,,"6.51 µM [rising, single point]"
CC(=O)Nc1ccc(S(=O)(=O)NCc2ccc(C(=O)NC(C)c3ccccc3)cc2)cc1 (configuration not stated),28%,,
CC(=O)/C(C[N+]1(C)CCCCC1)=N\O,-90.7%,"11.6 µM [falling, partial curve]","14.6 µM [falling, partial curve]"
O=C(NC1CS(=O)(=O)CC1NCc1ccccc1)c1ccccc1 (configuration not stated),1.8%,,"4.11 µM [rising, full curve, poor fit]"
COCCN(C(=O)COC(=O)/C=C/c1cccc(OC)c1)c1c(N)n(CC(C)C)c(=O)[nH]c1=O,75%,"2.31 µM [rising, full curve]",
COc1ccc(C(=O)Nc2ccc(NS(=O)(=O)c3ccccc3)cc2)cc1OC,4.44%,,"0.82 µM [rising, full curve, poor fit]"
Cc1cc(C)cc(Oc2cc(NC(=O)c3cn(C)nc3C)cc([N+](=O)[O-])c2)c1,-68.5%,"13 µM [falling, partial curve]","9.2 µM [falling, partial curve]"
CCOC(=O)C1(S(=O)(=O)c2ccc(Cl)cc2)CCN(Cc2ccc(Cl)cc2)CC1,,,"29.1 µM [rising, single point]"
COc1ccccc1N1CC(C(=O)OCC(=O)Nc2cc(C)on2)CC1=O (configuration not stated),-16.5%,,
Cc1csc(=O)n1CC(=O)OCc1nnc(-c2ccc([N+](=O)[O-])cc2)o1,1.04%,,
COc1ccc(CC(=O)O/N=C(\N)c2ccncc2)cc1,5.12%,,"3.66 µM [rising, single point]"
Cc1ccc2nc(SCC(=O)NCc3ccco3)c(C#N)cc2c1,,"6.51 µM [rising, single point]","6.51 µM [rising, single point]"
COCCn1c(/C=C/c2ccccc2)nc2ccccc21,-9.85%,"0.103 µM [falling, full curve, poor fit]","18.4 µM [falling, single point]"
O=C(NCCNc1ccnc2cc(Cl)ccc12)c1ccccc1F,-24.1%,,"2.06 µM [falling, full curve, poor fit]"
COc1ccc(N2CC(C(=O)Nc3ccc4c(c3)OCO4)CC2=O)cc1 (configuration not stated),,"2.31 µM [rising, partial curve]","2.06 µM [rising, partial curve]"
Cc1cccc(-n2c(C)cc(/C=N\NC(=O)c3ccco3)c2C)c1,15.9%,,
CCC(C)C(NC(=O)C1CCC(C)CC1)C(=O)Nc1ccc(OC)cc1 (configuration not stated),5.22%,,
CCc1cccc(C)c1NC(=O)COC(=O)Cc1ccsc1,19.8%,,"16.4 µM [falling, single point]"
N#Cc1ccc(C(=O)CSc2nnc(-c3ccc(C(F)(F)F)cn3)s2)cc1,-27.5%,"3.66 µM [falling, full curve, poor fit]","3.26 µM [falling, partial curve, poor fit]"
O=C(/C=C/c1ccc2c(c1)OCO2)Nc1cc(S(=O)(=O)N2CCOCC2)ccc1N1CCOCC1,-37.1%,,"0.0291 µM [rising, full curve, poor fit]"

# Random excerpt: four records from the list
Compound,cell number change,AC50 [1],AC50 [2]
N#Cc1ccc(C(=O)CSc2nnc(-c3ccc(C(F)(F)F)cn3)s2)cc1,-27.5%,"3.66 µM [falling, full curve, poor fit]","3.26 µM [falling, partial curve, poor fit]"
Cc1ccc2nc(SCC(=O)NCc3ccco3)c(C#N)cc2c1,,"6.51 µM [rising, single point]","6.51 µM [rising, single point]"
CCc1nnc(NC(=O)CCN(c2ccc(C)cc2)S(=O)(=O)c2ccccc2)s1,-33.3%,"0.82 µM [falling, partial curve, poor fit]",
CCOC(=O)C1(S(=O)(=O)c2ccc(Cl)cc2)CCN(Cc2ccc(Cl)cc2)CC1,,,"29.1 µM [rising, single point]"

# (list continues)

Compound,cell number change,AC50 [1],AC50 [2]
CC(=O)Nc1ccc(S(=O)(=O)Nc2nnc(C(C)(C)C)s2)cc1,-6.06%,,
COc1ccc(CC(NC(C)=O)C(=O)NC2CCN(S(=O)(=O)c3ccc(NC(C)=O)cc3)CC2)c(OC)c1 (configuration not stated),15%,,"25.9 µM [rising, partial curve, poor fit]"
CCCCn1c(N)c(N(CC(C)C)C(=O)C2CC(=O)N(c3ccc(CC)cc3)C2)c(=O)[nH]c1=O (configuration not stated),,"0.517 µM [falling, partial curve, poor fit]","6.51 µM [falling, single point]"
Cc1nnc2c(-c3ccccc3)nc3ccccc3n12,-1.86%,,"1.84 µM [rising, partial curve]"
O=c1oc(-c2ccc(Br)cc2)nc2ccccc12,3.52%,,"6.51 µM [falling, single point]"
Cc1ccc(Nc2nc3ccccc3o2)cc1F,-50.1%,"16.4 µM [falling, partial curve]","16.4 µM [falling, partial curve]"
O=C(/C(=C/O)N=Nc1ccccc1)c1ccc(Cl)cc1,-128%,,
CCOC(=O)c1ccc(NC(=S)N2CCN(CCN=CC3=C(O)CC(C)(C)CC3=O)CC2)cc1,-63.1%,"29.1 µM [falling, single point]",
O=C(O)COc1ccc2c(c1)OCCO2,-13.8%,,"29.1 µM [falling, single point]"
Cc1cc(C(=O)NCCCn2ccnc2)sc1-c1ccccc1,,"2.91 µM [rising, partial curve]",
CCn1cc(C(=O)O)c(=O)c2cc(F)c(N3CCN(C(=S)NC(=O)c4ccc(Br)cc4)CC3)cc21,-34.4%,,
CC(C)C[C@H](NC(=O)N1CCn2c1nc1ccccc12)C(=O)N[C@H](Cc1ccccc1)C(=O)O,34.3%,,
O=C(O)Cc1cn(-c2ccccc2)nc1-c1ccc(Cl)cc1,,,"0.116 µM [falling, single point]"
Cc1cccn2c(=O)c(/C=C(\C#N)S(=O)(=O)c3ccccc3)c(N3CCN(Cc4ccccc4)CC3)nc12,-10.4%,,"6.51 µM [falling, single point]"
O=C(Nc1nc(-c2ccc(-c3ccccc3)cc2)cs1)C1CCCO1 (configuration not stated),-3.26%,,"6.51 µM [rising, single point]"
NNC(=O)c1cc2nc(-c3cccs3)cc(C(F)(F)F)n2n1,2.55%,"2.31 µM [falling, partial curve]",
CCCCn1c(N)c(N(CCOC)C(=O)c2cc3c(s2)CCC(C)C3)c(=O)[nH]c1=O (configuration not stated),22.9%,,
COc1ccc(NC(=O)Nc2nnc(-c3ccccc3F)s2)cc1,22%,,
Cn1nccc1NC(=O)Nc1cccc(Cl)c1,-7.88%,,"11.6 µM [falling, single point]"
CCN(C(=O)COc1ccc(F)cc1Br)c1c(N)n(Cc2ccccc2)c(=O)[nH]c1=O,-33.9%,"8.2 µM [falling, partial curve]","29.1 µM [falling, single point]"
